Laboratory results taken from the supplement of paper PMC8728848.
Some of the results follow.

Key:
Test in all cases: glycan array binding signal (z-score within array); higher = stronger binding
Conditions in all cases: glycan notation: IUPAC condensed, linker removed
[1] = target: Neu5Ac(a2-3)Gal(b1-3)GalNAc
Summary of the method: (§1)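 Glycan array data were curated from 3228 arrays in the Consortium for Functional Glycomics database and kept only where the protein sequence was available. Glycan names were converted to IUPAC-condensed notation, and columns mapping to the same glycan were averaged. The binding signal is a within-array Z-score, averaged across arrays of the same protein sequence at different concentrations or buffers and across linkers. Negative Z-scores can be read as non-binding.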

[2] = target: Neu5Ac(a2-3)Gal(b1-3)GalNAc(b1-3)Gal(a1-4)Gal(b1-4)Glc
Summary of the method: as §1

[3] = target: Neu5Ac(a2-3)Gal(b1-3)GalNAc(b1-4)[Neu5Ac(a2-3)]Gal(b1-4)Glc
Summary of the method: as §1

[4] = target: Neu5Ac(a2-3)Gal(b1-3)GalNAc(b1-4)[Neu5Ac(a2-8)Neu5Ac(a2-3)]Gal(b1-4)Glc
Summary of the method: as §1

[5] = target: Neu5Ac(a2-3)Gal(b1-3)GalNAc6S
Summary of the method: as §1

[6] = target: Neu5Ac(a2-3)Gal(b1-3)GlcNAc
Summary of the method: as §1

[7] = target: Neu5Ac(a2-3)Gal(b1-3)GlcNAc(b1-2)Man
Summary of the method: as §1

[8] = target: Neu5Ac(a2-3)Gal(b1-3)GlcNAc(b1-2)Man(a1-3)[GlcNAc(b1-4)][Neu5Ac(a2-3)Gal(b1-3)GlcNAc(b1-2)Man(a1-6)]Man(b1-4)GlcNAc(b1-4)GlcNAc
Summary of the method: as §1

[9] = target: Neu5Ac(a2-3)Gal(b1-3)GlcNAc(b1-2)Man(a1-3)[Neu5Ac(a2-3)Gal(b1-3)GlcNAc(b1-2)Man(a1-6)]Man(b1-4)GlcNAc(b1-4)GlcNAc
Summary of the method: as §1

[10] = target: Neu5Ac(a2-3)Gal(b1-3)GlcNAc(b1-3)Gal(b1-3)GlcNAc
Summary of the method: as §1

[11] = target: Neu5Ac(a2-3)Gal(b1-3)GlcNAc(b1-3)Gal(b1-4)GlcNAc
Summary of the method: as §1

[12] = target: Neu5Ac(a2-3)Gal(b1-3)GlcNAc(b1-3)GalNAc
Summary of the method: as §1

[13] = target: Neu5Ac(a2-3)Gal(b1-3)GlcNAc(b1-4)Gal(b1-4)Glc
Summary of the method: as §1

[14] = target: Neu5Ac(a2-3)Gal(b1-3)GlcNAc(b1-6)GalNAc
Summary of the method: as §1

[15] = target: Neu5Ac(a2-3)Gal(b1-3)GlcNAc6S
Summary of the method: as §1

[16] = target: Neu5Ac(a2-3)Gal(b1-3)[Fuc(a1-4)]GlcNAc
Summary of the method: as §1

[17] = target: Neu5Ac(a2-3)Gal(b1-3)[Fuc(a1-4)]GlcNAc(b1-3)Gal(b1-3)[Fuc(a1-4)]GlcNAc
Summary of the method: as §1

[18] = target: Neu5Ac(a2-3)Gal(b1-3)[Fuc(a1-4)]GlcNAc(b1-3)Gal(b1-4)[Fuc(a1-3)]GlcNAc
Summary of the method: as §1

[19] = target: Neu5Ac(a2-3)Gal(b1-3)[GlcNAc(b1-6)]GalNAc
Summary of the method: as §1

[20] = target: Neu5Ac(a2-3)Gal(b1-3)[Neu5Ac(a2-6)]GalNAc
Summary of the method: as §1

[21] = target: Neu5Ac(a2-3)Gal(b1-3)[Neu5Ac(a2-6)]GlcNAc(b1-3)[Fuc(a1-3)[Gal(b1-4)]GlcNAc(b1-6)]Gal(b1-4)Glc
Summary of the method: as §1

[22] = target: Neu5Ac(a2-3)Gal(b1-3)]Neu5Ac(a2-3)Gal(b1-4)]GlcNAc
Summary of the method: as §1

Neu5Ac(a2-3)Gal(b1-4)Glc = target: Neu5Ac(a2-3)Gal(b1-4)Glc
Summary of the method: as §1

[23] = target: Neu5Ac(a2-3)Gal(b1-4)GlcNAc
Summary of the method: as §1

[24] = target: Neu5Ac(a2-3)Gal(b1-4)GlcNAc(b1-2)Man
Summary of the method: as §1

[25] = target: Neu5Ac(a2-3)Gal(b1-4)GlcNAc(b1-2)Man(a1-3)[GlcNAc(b1-4)][Neu5Ac(a2-3)Gal(b1-4)GlcNAc(b1-2)Man(a1-6)]Man(b1-4)GlcNAc(b1-4)GlcNAc
Summary of the method: as §1

[26] = target: Neu5Ac(a2-3)Gal(b1-4)GlcNAc(b1-2)Man(a1-3)[Neu5Ac(a2-3)Gal(b1-4)GlcNAc(b1-2)Man(a1-6)]Man(b1-4)GlcNAc(b1-4)GlcNAc
Summary of the method: as §1

[27] = target: Neu5Ac(a2-3)Gal(b1-4)GlcNAc(b1-2)Man(a1-3)[Neu5Ac(a2-3)Gal(b1-4)GlcNAc(b1-2)Man(a1-6)]Man(b1-4)GlcNAc(b1-4)[Fuc(a1-6)]GlcNAc
Summary of the method: as §1

[28] = target: Neu5Ac(a2-3)Gal(b1-4)GlcNAc(b1-2)Man(a1-3)[Neu5Ac(a2-6)Gal(b1-4)GlcNAc(b1-2)Man(a1-6)]Man(b1-4)GlcNAc(b1-4)GlcNAc
Summary of the method: as §1

[29] = target: Neu5Ac(a2-3)Gal(b1-4)GlcNAc(b1-2)[Neu5Ac(a2-3)Gal(b1-4)GlcNAc(b1-4)]Man(a1-3)[GlcNAc(b1-4)][Neu5Ac(a2-3)Gal(b1-4)GlcNAc(b1-2)[Neu5Ac(a2-3)Gal(b1-4)GlcNAc(b1-6)]Man(a1-6)]Man(b1-4)GlcNAc(b1-4)GlcNAc
Summary of the method: as §1

[30] = target: Neu5Ac(a2-3)Gal(b1-4)GlcNAc(b1-2)[Neu5Ac(a2-3)Gal(b1-4)GlcNAc(b1-4)]Man(a1-3)[GlcNAc(b1-4)][Neu5Ac(a2-3)Gal(b1-4)GlcNAc(b1-4)Man(a1-6)]Man(b1-4)GlcNAc(b1-4)GlcNAc
Summary of the method: as §1

[31] = target: Neu5Ac(a2-3)Gal(b1-4)GlcNAc(b1-2)[Neu5Ac(a2-3)Gal(b1-4)GlcNAc(b1-6)]Man(a1-6)[Neu5Ac(a2-3)Gal(b1-4)GlcNAc(b1-2)Man(a1-3)]Man(b1-4)GlcNAc(b1-4)GlcNAc
Summary of the method: as §1

[32] = target: Neu5Ac(a2-3)Gal(b1-4)GlcNAc(b1-2)[Neu5Ac(a2-3)Gal(b1-4)GlcNAc(b1-6)]Man(a1-6)[Neu5Ac(a2-3)Gal(b1-4)GlcNAc(b1-2)Man(a1-3)][GlcNAc(b1-4)]Man(b1-4)GlcNAc(b1-4)GlcNAc
Summary of the method: as §1

[33] = target: Neu5Ac(a2-3)Gal(b1-4)GlcNAc(b1-3)Gal
Summary of the method: as §1

[34] = target: Neu5Ac(a2-3)Gal(b1-4)GlcNAc(b1-3)Gal(b1-3)GlcNAc
Summary of the method: as §1

[35] = target: Neu5Ac(a2-3)Gal(b1-4)GlcNAc(b1-3)Gal(b1-4)GlcNAc
Summary of the method: as §1

[36] = target: Neu5Ac(a2-3)Gal(b1-4)GlcNAc(b1-3)Gal(b1-4)GlcNAc(b1-2)Man(a1-3)[Neu5Ac(a2-3)Gal(b1-4)GlcNAc(b1-3)Gal(b1-4)GlcNAc(b1-2)Man(a1-6)]Man(b1-4)GlcNAc(b1-4)GlcNAc
Summary of the method: as §1

B1: PX14379D-pdi-530-26-530 (Parabacteroides distasonis) (protein)
chain: DETVYDKLPADDFGQSTAELNALIGNSHNTMKKFWTEYMHLSECSGSMAVTPTRRGGDWYDGGQYREIYMHTWTSQTSRVKSAWKAATEAIGTCNEAIRKLQNSEILTEEEKAQDVADLRGVRAFWIYVMMDYWGNIPLLTEFHPTDKVFPGNSSRQEVFDWLIQEVEEIKDICPPATTENYGSFTQGAAYSLLAKLYLNAEAWGVTFSGNAYQKVIDNCDKVMAMGYILEPNWKDNFSVTNENSKEAILAATFSSSDTGNDGNVKNELHNNTLHYKDYLSLGITASGTWNGICAQPEYVRLFDEEDARLDGTFLTGLMIDKSTGKPIMTDHNNELNHTIDVNMIPGMEYDGTNWSAVEQHDGARCFKWEFASDLTSSMGNDFHIFRLADIYLMKAEALLRGGGSVSEATALVNTIRERGYGNSDHNYATVTLKEVQLERRLELAWEVYSRQDDIRFGCFTTGMWPQSNCERKADDYLKLLPVSQDAWQVNPNLKQNPGYAAFSK
glycan array binding signal (z-score) [1]: -0.635 | glycan array binding signal (z-score) [2]: 0.43 | glycan array binding signal (z-score) [3]: -0.359 | glycan array binding signal (z-score) [4]: -0.532 | glycan array binding signal (z-score) [5]: -0.451 | glycan array binding signal (z-score) [6]: -0.529 | glycan array binding signal (z-score) [7]: 0.26 | glycan array binding signal (z-score) [8]: -0.449 | glycan array binding signal (z-score) [9]: -0.573 | glycan array binding signal (z-score) [10]: -0.698 | glycan array binding signal (z-score) [11]: -0.348 | glycan array binding signal (z-score) [12]: -0.499 | glycan array binding signal (z-score) [13]: -0.388 | glycan array binding signal (z-score) [14]: 0.072 | glycan array binding signal (z-score) [15]: -0.195 | glycan array binding signal (z-score) [16]: 0.024 | glycan array binding signal (z-score) [17]: -0.559 | glycan array binding signal (z-score) [18]: -1.12 | glycan array binding signal (z-score) [19]: 0.243 | glycan array binding signal (z-score) [20]: -0.358 | glycan array binding signal (z-score) [21]: -0.248 | glycan array binding signal (z-score) [22]: -0.6 | glycan array binding signal (z-score) (Neu5Ac(a2-3)Gal(b1-4)Glc): -0.046 | glycan array binding signal (z-score) [23]: -0.826 | glycan array binding signal (z-score) [24]: 0.648 | glycan array binding signal (z-score) [25]: -0.322 | glycan array binding signal (z-score) [26]: 0.206 | glycan array binding signal (z-score) [27]: 0.415 | glycan array binding signal (z-score) [28]: -0.885 | glycan array binding signal (z-score) [29]: -0.169 | glycan array binding signal (z-score) [30]: -0.482 | glycan array binding signal (z-score) [31]: 0.553 | glycan array binding signal (z-score) [32]: -1.33 | glycan array binding signal (z-score) [33]: -0.757 | glycan array binding signal (z-score) [34]: -1.24 | glycan array binding signal (z-score) [35]: -1.08 | glycan array binding signal (z-score) [36]: 0.558
